Measured values from publication PMC9467819.
Results are given in words; binding and its absence hold for the method and conditions named. Binding seen in cells or lysates may run through a third protein. Some results given as binding are weak or reduced against the parent protein; the word gives no strength.

Sequences of proteins named here, by UniProt entry; tags and fusion partners are left off.
UniProt Q969H0: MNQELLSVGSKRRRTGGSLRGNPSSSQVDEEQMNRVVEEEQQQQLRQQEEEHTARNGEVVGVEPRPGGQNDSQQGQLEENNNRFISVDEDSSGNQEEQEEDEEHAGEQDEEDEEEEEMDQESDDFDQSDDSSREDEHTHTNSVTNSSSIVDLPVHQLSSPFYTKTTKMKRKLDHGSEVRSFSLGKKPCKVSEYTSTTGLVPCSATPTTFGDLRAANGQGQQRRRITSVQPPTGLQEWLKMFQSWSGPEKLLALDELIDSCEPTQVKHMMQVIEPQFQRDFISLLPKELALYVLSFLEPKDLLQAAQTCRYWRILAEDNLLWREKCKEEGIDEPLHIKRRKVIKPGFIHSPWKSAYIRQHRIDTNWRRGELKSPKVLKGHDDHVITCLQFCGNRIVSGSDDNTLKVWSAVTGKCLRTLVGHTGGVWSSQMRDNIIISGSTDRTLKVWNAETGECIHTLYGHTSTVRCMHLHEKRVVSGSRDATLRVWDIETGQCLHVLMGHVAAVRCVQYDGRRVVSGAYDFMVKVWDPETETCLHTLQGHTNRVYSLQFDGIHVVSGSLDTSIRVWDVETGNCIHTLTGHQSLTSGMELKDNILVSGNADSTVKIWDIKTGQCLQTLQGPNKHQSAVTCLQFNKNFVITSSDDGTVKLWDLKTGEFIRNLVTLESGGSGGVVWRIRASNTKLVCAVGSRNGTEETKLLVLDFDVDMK
UniProt P24385: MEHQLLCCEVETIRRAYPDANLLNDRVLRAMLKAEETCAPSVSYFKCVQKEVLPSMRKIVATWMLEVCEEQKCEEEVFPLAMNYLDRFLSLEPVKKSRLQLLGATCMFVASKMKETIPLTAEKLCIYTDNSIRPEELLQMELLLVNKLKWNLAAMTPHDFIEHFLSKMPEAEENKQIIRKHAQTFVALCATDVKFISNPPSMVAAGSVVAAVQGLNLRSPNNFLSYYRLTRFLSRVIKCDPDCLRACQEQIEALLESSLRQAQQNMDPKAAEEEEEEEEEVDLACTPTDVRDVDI

B1: PP2A^B55α (B55α regulatory subunit of protein phosphatase 2A) (protein, UniProt P63151 1-447)
chain: MAGAGGGNDIQWCFSQVKGAVDDDVAEADIISTVEFNHSGELLATGDKGGRVVIFQQEQENKIQSHSRGEYNVYSTFQSHEPEFDYLKSLEIEEKINKIRWLPQKNAAQFLLSTNDKTIKLWKISERDKRPEGYNLKEEDGRYRDPTTVTTLRVPVFRPMDLMVEASPRRIFANAHTYHINSISINSDYETYLSADDLRINLWHLEITDRSFNIVDIKPANMEELTEVITAAEFHPNSCNTFVYSSSKGTIRLCDMRASALCDRHSKLFEEPEDPSNRSFFSEIISSISDVKFSHSGRYMMTRDYLSVKIWDLNMENRPVETYQVHEYLRSKLCSLYENDCIFDKFECCWNGSDSVVMTGSYNNFFRMFDRNTKRDITLEASRENNKPRTVLKPRKVCASGKRKKDEISVDSLDFNKKILHTAWHPKENIIAVATTNNLYIFQDKVN

Assays:
[1] = biological target: T1, F-box and leucine-rich repeat protein 16 (FBXL16) (human (endogenous in Ishikawa)) (UniProt Q8N461); assay: co-IP; Ishikawa/MPA cells with shRNA-NC or shFBXL16; endogenous proteins; precipitating antibody not stated for this experiment
T1 sequence: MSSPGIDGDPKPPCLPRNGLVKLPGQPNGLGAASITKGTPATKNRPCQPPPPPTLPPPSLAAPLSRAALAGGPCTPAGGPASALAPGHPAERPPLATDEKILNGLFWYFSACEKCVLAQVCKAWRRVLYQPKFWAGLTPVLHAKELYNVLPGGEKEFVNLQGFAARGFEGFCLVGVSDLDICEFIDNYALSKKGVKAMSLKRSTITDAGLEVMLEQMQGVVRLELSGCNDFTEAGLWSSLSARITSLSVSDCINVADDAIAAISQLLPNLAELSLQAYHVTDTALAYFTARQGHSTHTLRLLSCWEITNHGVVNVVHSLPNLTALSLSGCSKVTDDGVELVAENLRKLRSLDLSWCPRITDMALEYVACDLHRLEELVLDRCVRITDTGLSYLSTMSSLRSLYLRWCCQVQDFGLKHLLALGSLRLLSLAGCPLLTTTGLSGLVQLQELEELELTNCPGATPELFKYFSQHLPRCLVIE

[2] = biological target: T1, F-box and leucine-rich repeat protein 16 (FBXL16) (human (endogenous in Ishikawa)); assay: co-IP; Ishikawa/MPA cells (shRNA-NC or shFBXL16), treated with 100 nM nocodazole for 4 hours, NP-40 lysis buffer; antibodies to PP2A/C, PP2A^B55-α, PP2A/A and FBXL16 incubated with cell extracts at 4°C for 16 hours, protein A/G beads, western blot

| Molecule | binding [1] | binding [2] |
| --- | --- | --- |
| FBW7 (from UniProt Q969H0 1-707) | no binding | – |
| cyclin D1 (from UniProt P24385 1-295) | no binding | – |
| B1 | – | binds |
